## Screening data, single-dose tests

Data taken from ChEMBL document CHEMBL3988442, “University of Dundee, Small-Polar-MMV Screening Library” (2021).

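Whole-parasite assay of Trypanosoma brucei over 72 hours; the read-out is not stated. Compounds at 30 µM. Direction is inferred from retests: higher values go with stronger inhibition. Values scatter widely below zero; nearly all retest evidence comes from the higher of the two concentrations used. About 64,000 compounds were tested under these conditions; 1.5% (about 940) showed 50% or more at least once.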

Values are the deposited “Percent Effect”, in %. The record does not define 0% and 100%; most values in the screen are far below 50% and negative numbers occur (in some assays of this library far below -100). Compounds were drawn at random from those tested, without regard to their results.

compound | effect
Cc1cnccc1CN(C)C(=O)c1ccc(Cn2cnnn2)cc1 | -28.05
CC(C)[C@@H]1CN(C(=O)c2ccsc2)C[C@H]1C(=O)O | -37.21
N#Cc1ccc(N2CCN(c3ccc4nncn4n3)CC2)nc1 | -0.4898
O=C(Nc1ccccc1)N1CCn2nnc(COc3cccnc3)c2C1.O=C(O)C(F)(F)F | 9.519
CC(C)OCCCNC(=O)CSc1nnc(OC(C)C)s1 | -311.4
CCS(=O)(=O)CC(=O)Nc1cc(-c2cccc(F)c2F)n[nH]1 | -32.59
O=C(c1ccncc1F)N1CCCC1c1nc(-c2ccccc2)n[nH]1 (centres undefined) | -28.63
CC(C)NC(=O)C1CN(C(=O)c2cccs2)CC12CCOCC2 (centres undefined) | 20.92
Cc1nc(-c2cccc(C(=O)N(C)CC(C)O)c2)cs1 (centres undefined) | -15.31
Cc1nc(C)n(C2CCCN(C(=O)c3cnc[nH]3)C2)n1 (centres undefined) | -22.9
Cc1cnn(CC2CCCCN2C(=O)c2ccc3[nH]nnc3c2)c1 (centres undefined) | -8.761
COCCCN1CC2(CCCN(c3ncnc4[nH]ccc34)C2)CCC1=O (centres undefined) | -19.72
CCN(C)c1ncnc2c1CCN(Cc1ccoc1)CC2 | 15
Cn1cc(C(=O)N2CCCC2CCc2ccccc2)cn1 (centres undefined) | -15.9
Cc1c(Cl)cccc1S(=O)(=O)N1CCC2(CC1)OCCS2 | -8.863
Cn1ccnc1CN1CCC(F)(F)C2(CCN(c3cnccn3)C2)C1.O=C(O)C(F)(F)F (centres undefined) | -11.37
Cc1ccc(CC(=O)NCCCNS(C)(=O)=O)cc1 | 1.715
Cc1noc(C)c1CN(C)Cn1c(=O)n(C)c2ccccc21 | -16.17
CC1=C(C#N)C(=O)NC(=O)/C1=C\c1c(C)nn(-c2ccccc2)c1O | 8.75
CCC(=O)N1CCC(Cc2ccccc2-c2ccncc2)(C(N)=O)C1 (centres undefined) | 20.42
COCCNS(=O)(=O)c1cccc2c1CN(C(=O)c1ccccc1)CC2 | -43.21
O=C(O)C(F)(F)F.[H][C@@]12CCN(Cc3c(C)noc3C)C[C@]1(C(=O)N1CCOCC1)CCO2 | 8.41
Cc1ccc(NS(=O)(=O)c2ccc(C#N)cc2)c(CN(C)C)c1 | -23.9
COCCNC(=O)Nc1cccc2c1CCN(S(C)(=O)=O)C2 | 39.18
CN1CC(C(=O)NCc2ccnc(-n3cccn3)c2)CC1=O (centres undefined) | 7.969
CC(C)N(CC(N)=O)Cc1cccc(Br)c1 | -44.29
Cc1ccc(N2CCC(C(O)Cc3ccccc3)CC2)nn1 (centres undefined) | -8.869
O=C(CC(F)(F)F)N1CCCC(c2nccn2Cc2ccncc2)C1 (centres undefined) | -32.61
NC(=O)C1CCN(C(=O)CCn2ccc3ccc(F)cc32)CC1 | -32.51
COC(=O)C(NC(=O)c1cc(C)ccc1C)c1cccnc1 (centres undefined) | -68.54
CCN1CC2(CC1=O)CN(C(=O)c1ccco1)CCN(C(=O)N(C)C)C2 (centres undefined) | -13.88
COCC(=O)N1CCC2(CC1)COc1ccccc1S(=O)(=O)N(C)C2 | -33.48
O=C(NCCCO)Nc1cnc2cc(Cl)ccc2c1O | 8.34
[H][C@]12CC[C@]([H])(CN(C(=O)Cc3cccs3)C1)N(Cc1ccccn1)C2=O | 4.172
CC[C@@]1(O)CCN(C(=O)c2ccc(-c3ccco3)cc2)C[C@H]1O | -42.38
CCc1c(C)nc(-n2nc(-c3cccs3)cc2N)[nH]c1=O | 63.75
Cc1cnn(CC2CCCCN2c2ncnc3ccccc23)c1 (centres undefined) | -29.94
CCN(CC)CC1CN(Cc2cccc(C#N)c2)Cc2nccn2C1.O=C(O)C(F)(F)F.O=C(O)C(F)(F)F (centres undefined) | -14.86
COc1ccc(-n2cccn2)c(CN2CCC(O)(CO)CC2)c1 | 3.619
Cc1nn(C)c(N(C)C)c1CNCc1ccc2c(c1)OCO2 | -31.44
CCc1nnc2n1CCN(C(=O)CN(C)C1CC1)C2 | -7.218
FC(F)(F)COCCN1CCCC(c2noc(C3CC3)n2)C1 (centres undefined) | 6.218
O=C(O)C(F)(F)F.O=C(O)C(F)(F)F.[H][C@@]12CCN(Cc3ccoc3)[C@]1([H])CC[C@@H](C(=O)NCCc1ccccn1)O2 | -47.9
CC1(C)CN(c2cc(C3CC3)ncn2)C[C@]1(C)O | 35.64
CC(C)Cn1cnc(S(=O)(=O)Nc2cccnc2-n2cccn2)c1 | -33.17
CN(C)C(=O)c1ccn(COc2ccccc2Cl)n1 | -0.6594
Cc1nc(CN2CCCN(C(=O)C(C)OCC3CC3)CC2)cs1 (centres undefined) | -1.085
Cc1ccc2nc(C3CCCN3C(=O)c3cc(=O)[nH]c(=O)[nH]3)[nH]c2c1 (centres undefined) | -65.87
Cc1cccc(CN2CCC3(CC2)CN(c2cnn(C)c2)C(=O)CO3)n1.O=C(O)C(F)(F)F | -34.24
Cc1ccccc1S(=O)(=O)N[C@@H]1CC[C@@H](N2CCNC(=O)C2)[C@@H]1O | -2.174

Some entries from above, unchanged:

With CN(C)C(=O)c1ccn(COc2ccccc2Cl)n1 the screen gave -0.6594%.
With CCN(C)c1ncnc2c1CCN(Cc1ccoc1)CC2 the screen gave 15%.
With FC(F)(F)COCCN1CCCC(c2noc(C3CC3)n2)C1 (centres undefined) the screen gave 6.218%.
With Cc1cccc(CN2CCC3(CC2)CN(c2cnn(C)c2)C(=O)CO3)n1.O=C(O)C(F)(F)F the screen gave -34.24%.
With CC[C@@]1(O)CCN(C(=O)c2ccc(-c3ccco3)cc2)C[C@H]1O the screen gave -42.38%.
With COCCNS(=O)(=O)c1cccc2c1CN(C(=O)c1ccccc1)CC2 the screen gave -43.21%.